Measured values reported in patent US20160024199A1.
No constants are given. Whether binding was seen depends on the method and setting. Some binding calls cover weakened binding; strength is not graded here.

By UniProt entry, the sequences of proteins in these tests, tags left out. Where a name states a change or a piece, a line headed by the entry shows the natural chain unless it says otherwise. Residues count along the entry.
UniProt P01344: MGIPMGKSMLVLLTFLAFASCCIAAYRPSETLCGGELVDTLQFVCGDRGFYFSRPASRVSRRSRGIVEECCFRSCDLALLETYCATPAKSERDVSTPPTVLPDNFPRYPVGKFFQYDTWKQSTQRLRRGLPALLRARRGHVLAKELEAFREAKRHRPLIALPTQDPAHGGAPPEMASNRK
UniProt P12314, residues 16-374: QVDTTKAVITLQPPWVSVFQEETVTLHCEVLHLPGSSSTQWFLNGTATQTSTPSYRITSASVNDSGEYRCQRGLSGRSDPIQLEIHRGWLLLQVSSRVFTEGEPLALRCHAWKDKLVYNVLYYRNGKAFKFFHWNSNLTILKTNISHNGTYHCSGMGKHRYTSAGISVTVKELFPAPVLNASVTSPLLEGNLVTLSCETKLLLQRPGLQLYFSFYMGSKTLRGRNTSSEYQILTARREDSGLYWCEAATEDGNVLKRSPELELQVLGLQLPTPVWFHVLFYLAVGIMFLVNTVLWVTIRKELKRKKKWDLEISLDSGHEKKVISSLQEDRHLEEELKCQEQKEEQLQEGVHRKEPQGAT
UniProt P02769, residues 25-607: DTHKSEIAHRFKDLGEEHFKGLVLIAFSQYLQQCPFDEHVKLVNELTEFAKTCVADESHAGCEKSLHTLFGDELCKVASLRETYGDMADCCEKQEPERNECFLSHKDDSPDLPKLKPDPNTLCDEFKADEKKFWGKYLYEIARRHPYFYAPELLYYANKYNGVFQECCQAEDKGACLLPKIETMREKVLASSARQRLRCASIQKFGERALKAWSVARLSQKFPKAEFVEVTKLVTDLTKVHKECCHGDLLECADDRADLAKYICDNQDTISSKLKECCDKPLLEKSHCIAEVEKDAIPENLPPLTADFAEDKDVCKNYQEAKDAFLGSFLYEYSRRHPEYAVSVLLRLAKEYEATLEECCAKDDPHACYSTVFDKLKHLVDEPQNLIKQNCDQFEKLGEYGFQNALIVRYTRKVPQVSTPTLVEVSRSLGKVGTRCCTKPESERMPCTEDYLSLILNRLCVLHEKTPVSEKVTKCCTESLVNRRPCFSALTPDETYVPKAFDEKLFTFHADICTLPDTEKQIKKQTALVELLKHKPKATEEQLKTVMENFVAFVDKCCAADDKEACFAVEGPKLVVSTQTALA

Key:
[1] = target: human insulin-like growth factor II (IGF-II) (human) (UniProt P01344); test: told with the BJAB cell assay
[2] = target: human insulin-like growth factor II (IGF-II) (human) (UniProt P01344); test: flow cytometry blocking assay: IgG pre-incubated with biotinylated IGF-II, mixture added to MCF-7 cells (IGF-IR and IR), streptavidin-PE; IgG concentration not given
[3] = target: human insulin-like growth factor II (IGF-II) (human) (UniProt P01344); test: flow cytometry blocking assay: 1 nM biotinylated IGF-II on MCF-7 cells (IGF-IR and IR) in the presence of the antibody, streptavidin-PE; antibody concentration not given
[4] = target: high affinity receptor for IgG on U937 cells (UniProt P12314); test: flow cytometry on U937 cells, FITC anti-human Fc
[5] = target: high affinity receptor for IgG on U937 cells (UniProt P12314); test: flow cytometry on U937 cells (high affinity receptor for IgG), bound antibody detected with FITC goat F(ab')2 anti-human Fc; concentrations not given
[6] = target: human insulin-like growth factor II (IGF-II) (human) (UniProt P01344); test: ELISA after 9 days in human sera at 37 C
[7] = target: human insulin-like growth factor II (IGF-II) (human) (UniProt P01344); test: ELISA, 10 nM IgG on coated IGF-II, detected with HRP anti-human Fc antibody
[8] = target: BSA (bovine) (UniProt P02769); test: ELISA, 10 nM IgG on coated BSA, detected with HRP anti-human Fc antibody
[9] = target: human insulin-like growth factor II (IGF-II) (human) (UniProt P01344); test: ELISA, IgG on coated antigen
[10] = target: human insulin-like growth factor II (IGF-II) (human) (UniProt P01344); test: ELISA, serial dilutions of IgG on coated IGF-II, detected with HRP anti-human Fc antibody
[11] = target: human insulin-like growth factor II (IGF-II) (human) (UniProt P01344); test: ELISA on coated IGF-II after incubation of the antibody with an equal volume of human serum at 37 C for 0 to 9 days
[12] = target: human insulin-like growth factor II (IGF-II) (human) (UniProt P01344); test: size-exclusion chromatography (Superdex G75) of IgG1 m610, IgG1 m708.5 and IGF-II mixed 1:1:2
[13] = target: human insulin-like growth factor II (IGF-II) (human) (UniProt P01344); test: told with the phosphorylation assay
[14] = target: human insulin-like growth factor II (IGF-II) (human) (UniProt P01344); test: size-exclusion chromatography, Superdex 75

binding [1]: binds
binding [2]: binds
binding [3]: binds
binding [4]: binds
binding [5]: binds
binding [6]: binds
binding [7]: binds
binding [8]: no binding (tested: 10 nM)
binding [9]: binds
binding [10]: binds
binding [11]: binds
binding [12]: binds
binding [13]: binds
binding [14]: binds
B1: IgG1 m708.5 (antibody, V domains shown)
VH: QVQLQQLGAEVKMPGSSVKVSCKASGGTFSSYAISWVRQAPGQGLEWMGGIIPTLGIVKYAQKFQGRVTITADKSTSTAYMELSSLGSEDTAVYYCAGGPRGYSYNFDNWGQGTLVTVSS
VL: DIQMTQSPSSLSASVGDRVTIVCRASQTISRYVNWYQQKPGKAPKLLIYAASSLQSGVSSRFSGSGSGTEFALTISSLQPEDFATYFCQQTYSPPITFGQGTRLEIKQ
